{"source": "the supplement of paper PMC12823440", "about": "“Inhibitors supercharge kinase turnover through native proteolytic circuits” (Nature, 2025)", "note": "Structures can show the parent of a compound that is named as a salt. The list shows a part of the results. Hit calls seldom repeat between salt and free forms of one compound.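 Kinases were expressed as nanoluciferase fusions in K562 cells and luminescence was read every 4 h between 2 and 18 h as percent of control, DMSO set to 100% and a positive control to 0%. A time point counts as decreased when the signal drops significantly (2 sigma). The hit call is the authors' own, does not follow from the count of time points alone, and its rule is not shown.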"}
{"molecular_target": "RAF1 (UniProt P04049)", "assay": "number of time points (of 5) at which kinase-Nluc abundance scored as decreased, DMSO-normalised (count); higher = more persistent destabilization", "settings": "K562; 2-18 h"}
{"compound": "O=C1C=CC[C@@H]2[C@H]3CCCN4CCC[C@@H](CN12)[C@@H]34", "note": "[Sophocarpine] (10 µM)", "number of time points": 0}
{"compound": "C=CC(=O)N[C@H]1C=C(C)c2c(-c3cnc4ccccc4c3)c3c(N)ncnc3n2C1", "note": "(10 µM)", "number of time points": 0}
{"compound": "Cn1cc(C2=C(c3cn(C4CCN(Cc5ccccn5)CC4)c4ccccc34)C(=O)NC2=O)c2ccccc21", "note": "[Enzastaurin] (10 µM)", "number of time points": 0}
{"compound": "CCN1CCN(C(=O)Cc2ccc(Nc3ncc(F)c(Nc4ccc(C(=O)Nc5ccccc5Cl)cc4)n3)cc2)CC1", "note": "(2.5 µM)", "number of time points": 0}
{"compound": "C[C@H]1CC[C@]2(NC1)O[C@H]1C[C@H]3[C@@H]4CC[C@H]5C[C@@H](O)CC[C@]5(C)[C@H]4CC[C@]3(C)[C@H]1[C@@H]2C", "note": "[Tomatidine (hydrochloride)] (10 µM)", "number of time points": 0}
{"compound": "O=[N+]([O-])/C=C/c1ccc2c(c1)OCO2", "note": "(2.5 µM)", "number of time points": 0}
{"compound": "NCCc1cn(S(=O)(=O)c2c(Cl)nc3sccn23)c2ccccc12", "note": "(10 µM)", "number of time points": 0}
{"compound": "COc1ccc(N(C(=O)Oc2c(C)cccc2C)c2ccnc(Nc3ccc(N4CCN(C)CC4)cc3)n2)c(OC)c1", "note": "(2.5 µM)", "number of time points": 0}
{"compound": "Cc1ccccc1-n1c(Cn2cnc3c(N)ncnc32)nc2cccc(C)c2c1=O", "note": "(10 µM)", "number of time points": 0}
{"compound": "Cc1[nH]ncc1-c1cc2nc([C@H]3CC4CCN3CC4)[nH]c(=O)c2s1", "note": "[(R)-Simurosertib] (10 µM)", "number of time points": 0}
{"compound": "CC1C(=O)OC2C(O)C34C5OC(=O)C3(OC3OC(=O)C(O)C34C(C(C)(C)C)C5O)C12O", "note": "(centres undefined) [Ginkgolide C] (10 µM)", "number of time points": 0}
{"compound": "O=C(/C=C/c1ccccc1)OC[C@H]1O[C@@H](O[C@@H]2OC=C[C@H]3[C@H](O)[C@@H]4O[C@]4(CO)[C@@H]23)[C@H](O)[C@@H](O)[C@@H]1O", "note": "[Picroside I] (10 µM)", "number of time points": 0}
{"compound": "CC1=C[C@]23C(=O)[C@@H](C=C(CO)[C@@H](O)[C@]2(O)[C@H]1O)[C@H]1[C@@H](C[C@H]3C)C1(C)C", "note": "[Ingenol] (10 µM)", "number of time points": 0}
{"compound": "O=Cc1cn(Cc2ccc(Cl)cc2)c2ccccc12", "note": "[Oncrasin-1] (10 µM)", "number of time points": 0}
{"compound": "C[C@@H]1CC[C@H]2[C@@H](C)C(=O)O[C@@H]3O[C@@]4(C)CC[C@@H]1[C@]32OO4", "note": "[Artemisinin] (10 µM)", "number of time points": 0}
{"compound": "C[C@H](Nc1ncnc2[nH]cnc12)c1nc2ccc(F)cc2c(=O)n1-c1ccccc1", "note": "[Acalisib] (10 µM)", "number of time points": 0}
{"compound": "O=C1c2ccccc2C(=O)c2c1cccc2-c1cnn(C2CCNCC2)c1", "note": "[PDK4-IN-1 (hydrochloride)] (10 µM)", "number of time points": 0}
{"compound": "Cc1ccccc1-n1c(Cn2ncc3c(N)ncnc32)nc2cccc(C)c2c1=O", "note": "(10 µM)", "number of time points": 0}
{"compound": "Nc1ncnc2c1ncn2[C@@H]1O[C@@H]2COP(O)(=S)O[C@H]2[C@H]1O", "note": "(some centres undefined) [Sp-cAMPS (sodium salt)] (10 µM)", "number of time points": 0}
{"compound": "CN(C)C(=O)c1ccc(Cn2c(C(=O)O)cc3c(Br)cc(Sc4ccc(Cl)c(Cl)c4)cc32)cc1", "note": "[Rheb inhibitor NR1] (10 µM)", "number of time points": 0}
{"compound": "C/C=C(/C)C(=O)O[C@H]1[C@@H]2[C@H](C)C(=O)O[C@@H]2C[C@@H](C)[C@@H]2C=CC(=O)[C@]21C", "note": "[Brevilin A] (2.5 µM)", "number of time points": 0}
{"molecular_target": "RAF1_S257L (clone: RAF1_mut) (UniProt P04049)", "assay": "number of time points (of 5) at which kinase-Nluc abundance scored as decreased, DMSO-normalised (count); higher = more persistent destabilization", "settings": "K562; 2-18 h"}
{"compound": "C[C@H]1CC[C@]2(NC1)O[C@H]1C[C@H]3[C@@H]4CC[C@H]5C[C@@H](O[C@@H]6O[C@H](CO)[C@H](O[C@@H]7O[C@H](CO)[C@@H](O)[C@H](O[C@@H]8OC[C@@H](O)[C@H](O)[C@H]8O)[C@H]7O[C@@H]7O[C@H](CO)[C@@H](O)[C@H](O)[C@H]7O)[C@H](O)[C@H]6O)CC[C@]5(C)[C@H]4CC[C@]3(C)[C@H]1[C@@H]2C", "note": "[Tomatine] (2.5 µM)", "number of time points": 0}
{"compound": "CCCCNc1nc(N)c2[nH]c(=O)n(Cc3ccc(C)nc3)c2n1", "note": "(10 µM)", "number of time points": 0}
{"compound": "C[C@H](CCC(=O)O)C[C@H](C)C[C@H](C)C(=O)/C=C(\\O)[C@H](C)C[C@H](C)C/C=C/[C@@H](C)[C@@H](O)[C@@H](C)[C@@H](O)C[C@@H]1CC[C@@](C)([C@H]2CC[C@@](C)([C@@H](C)O)O2)O1", "note": "[Ionomycin (calcium)] (2.5 µM)", "number of time points": 0}
{"compound": "CCOC(=O)c1c(/C(C#N)=C\\N)c2ccc(Cl)c(Cl)c2n1C", "note": "(10 µM)", "number of time points": 0}
{"compound": "CC(=O)OC(C)(C)/C=C/C(=O)[C@](C)(O)[C@H]1[C@H](O)C[C@@]2(C)[C@@H]3CC=C4[C@@H](C=C(O)C(=O)C4(C)C)[C@]3(C)C(=O)C[C@]12C", "note": "[Cucurbitacin E] (2.5 µM)", "number of time points": 0}
{"compound": "O=C1C=CC[C@@H]2[C@H]3CCCN4CCC[C@@H](CN12)[C@@H]34", "note": "[Sophocarpine (monohydrate)] (2.5 µM)", "number of time points": 0}
{"compound": "C=CC(=O)Nc1ccc2[nH]c(=O)n(C3CCN(Cc4ccc(-c5nc6cc[nH]c(=O)c6cc5-c5ccccc5)cc4)CC3)c2c1", "note": "[Borussertib] (10 µM)", "number of time points": 0}
{"compound": "O=C1C=CC[C@@H]2[C@H]3CCCN4CCC[C@@H](CN12)[C@@H]34", "note": "[Sophocarpine] (10 µM)", "number of time points": 0}
{"compound": "C=CC(=O)N[C@H]1C=C(C)c2c(-c3cnc4ccccc4c3)c3c(N)ncnc3n2C1", "note": "(10 µM)", "number of time points": 0}
{"compound": "Cn1cc(C2=C(c3cn(C4CCN(Cc5ccccn5)CC4)c4ccccc34)C(=O)NC2=O)c2ccccc21", "note": "[Enzastaurin] (10 µM)", "number of time points": 0}
{"compound": "CCN1CCN(C(=O)Cc2ccc(Nc3ncc(F)c(Nc4ccc(C(=O)Nc5ccccc5Cl)cc4)n3)cc2)CC1", "note": "(2.5 µM)", "number of time points": 0}
{"compound": "C[C@H]1CC[C@]2(NC1)O[C@H]1C[C@H]3[C@@H]4CC[C@H]5C[C@@H](O)CC[C@]5(C)[C@H]4CC[C@]3(C)[C@H]1[C@@H]2C", "note": "[Tomatidine (hydrochloride)] (10 µM)", "number of time points": 0}
{"compound": "O=[N+]([O-])/C=C/c1ccc2c(c1)OCO2", "note": "(2.5 µM)", "number of time points": 0}
{"compound": "NCCc1cn(S(=O)(=O)c2c(Cl)nc3sccn23)c2ccccc12", "note": "(10 µM)", "number of time points": 0}
{"compound": "COc1ccc(N(C(=O)Oc2c(C)cccc2C)c2ccnc(Nc3ccc(N4CCN(C)CC4)cc3)n2)c(OC)c1", "note": "(2.5 µM)", "number of time points": 0}
{"compound": "Cc1ccccc1-n1c(Cn2cnc3c(N)ncnc32)nc2cccc(C)c2c1=O", "note": "(10 µM)", "number of time points": 0}
{"compound": "Cc1[nH]ncc1-c1cc2nc([C@H]3CC4CCN3CC4)[nH]c(=O)c2s1", "note": "[(R)-Simurosertib] (10 µM)", "number of time points": 0}
{"compound": "CC1C(=O)OC2C(O)C34C5OC(=O)C3(OC3OC(=O)C(O)C34C(C(C)(C)C)C5O)C12O", "note": "(centres undefined) [Ginkgolide C] (10 µM)", "number of time points": 0}
{"compound": "O=C(/C=C/c1ccccc1)OC[C@H]1O[C@@H](O[C@@H]2OC=C[C@H]3[C@H](O)[C@@H]4O[C@]4(CO)[C@@H]23)[C@H](O)[C@@H](O)[C@@H]1O", "note": "[Picroside I] (10 µM)", "number of time points": 0}
{"compound": "CC1=C[C@]23C(=O)[C@@H](C=C(CO)[C@@H](O)[C@]2(O)[C@H]1O)[C@H]1[C@@H](C[C@H]3C)C1(C)C", "note": "[Ingenol] (10 µM)", "number of time points": 0}
{"compound": "O=Cc1cn(Cc2ccc(Cl)cc2)c2ccccc12", "note": "[Oncrasin-1] (10 µM)", "number of time points": 0}
{"compound": "C[C@@H]1CC[C@H]2[C@@H](C)C(=O)O[C@@H]3O[C@@]4(C)CC[C@@H]1[C@]32OO4", "note": "[Artemisinin] (10 µM)", "number of time points": 0}
{"compound": "C[C@H](Nc1ncnc2[nH]cnc12)c1nc2ccc(F)cc2c(=O)n1-c1ccccc1", "note": "[Acalisib] (10 µM)", "number of time points": 0}
{"compound": "O=C1c2ccccc2C(=O)c2c1cccc2-c1cnn(C2CCNCC2)c1", "note": "[PDK4-IN-1 (hydrochloride)] (10 µM)", "number of time points": 0}
{"compound": "Cc1ccccc1-n1c(Cn2ncc3c(N)ncnc32)nc2cccc(C)c2c1=O", "note": "(10 µM)", "number of time points": 0}
{"compound": "Nc1ncnc2c1ncn2[C@@H]1O[C@@H]2COP(O)(=S)O[C@H]2[C@H]1O", "note": "(some centres undefined) [Sp-cAMPS (sodium salt)] (10 µM)", "number of time points": 0}
{"compound": "CN(C)C(=O)c1ccc(Cn2c(C(=O)O)cc3c(Br)cc(Sc4ccc(Cl)c(Cl)c4)cc32)cc1", "note": "[Rheb inhibitor NR1] (10 µM)", "number of time points": 0}
{"compound": "C/C=C(/C)C(=O)O[C@H]1[C@@H]2[C@H](C)C(=O)O[C@@H]2C[C@@H](C)[C@@H]2C=CC(=O)[C@]21C", "note": "[Brevilin A] (2.5 µM)", "number of time points": 0}
